PubChem BioAssay AID1259308, NCATS, 2017
Test: 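Genes whose loss raises luciferase production in HEK293 cells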 (primary screen). Cell system: human HEK293 embryonic kidney cells stably expressing firefly luciferase (HEK-CMV-Luc2-Hygro). Reagents: single siRNA against human genes, 0.8 pmol siRNA per well. Time to read-out: 72 h. Measured: 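Reporter luminescence and viable-cell signal on separate replicate plates, given as percent of non-targeting control and median/MAD z-scores, plus per-cell luciferase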. Direction: total luciferase, z-score: higher = more reporter protein produced. Rule for the call: 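Active when the median/MAD z-score for overall luciferase is greater than 3; a gene was taken forward for validation with new siRNAs if at least two of its three siRNAs passed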. Calls: active = raised luciferase; inactive = no rise.
The deposit covers about 59,000 reagents; shown is a part drawn at random. Of all reagents, about 1,510 (2.6%) got an active call. 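Calls use total luciferase alone and ignore viability, so some active siRNAs may act by altering cell number.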 Entries without a mark were called inactive. The numbers tell different reagents against one gene apart. Not all columns of the deposit are shown. Reagent sequences are not shown.

total luciferase, z-score, by gene and reagent
SHBG: #1 2.81; #2 -0.546; #3 1.81
SFMBT2: #1 0.142; #2 0.331; #3 0.0044
LRPPRC: #1 -0.244; #2 -0.996; #3 0.178
CHCHD1: #1 -2.85; #2 0.0524; #3 -1.58
C9orf50: #1 -0.946; #2 -0.0354; #3 0.581
CYB5B: #1 -0.679; #2 -0.254; #3 0.453
ZCCHC13: #1 -1.71; #2 0.12; #3 0.188
SRCIN1: #1 4.26 (active); #2 1.38; #3 0.174

2 of these entries in another layout:
{"Gene": "SHBG", "reagent": 2, "total luciferase, z-score": -0.546}
{"Gene": "SHBG", "reagent": 3, "total luciferase, z-score": 1.81}
